Key:
[1] = system: UMNs of hSOD1^G93A-UeGFP mice; assay: Axon outgrowth of UMNs diseased by mSOD1 toxicity in dissociated motor cortex culture; assay type: cell-based, mouse; settings: 3 days in vitro, riluzole 500 nM, edaravone 1 μM
From the text: Mice. All animal procedures were approved by the Northwestern University Animal Care and Use committee and comply with the standards of the National Institutes of Health. All mice were on C57BL/6 background. Transgenic hemizygous males expressing a high copy number of the human SOD1 gene with a G93A mutation (B6SJL-Tg (SOD1*G93A)1Gur/J; The Jackson Laboratory) were bred to hemizygous UCHL1-eGFP females to generate hSOD1^G93A-UeGFP and WT-UeGFP (control) mice. UCHL1-eGFP mice were generated in the Ozdinler Lab; they are reporter lines for UMNs (Yasvoina, Genc et al. 2013), and are now available at Jackson Laboratory (stock no. 022476). Hemizygous UCHL1-eGFP females were bred to hemizygous prpTDP-43^A315T mice (procured from Jackson Laboratory, stock no. 010700) to generate prpTDP-43^A315T-UeGFP mice. prpTDP-43^A315T mice were supplied with gel diet (DietGel 76A, ClearH2O, ME, USA) to eliminate gastrointestinal (GI) complications. […]
UMNs were quantitatively analyzed for differences in neurite length and arborization complexity. Images taken with a 20× objective on the epifluorescent microscope (Nikon) were analyzed using the Neurite Tracer plugin from FIJI (NIH), which enables semi-autonomous tracing to measure the length of the axon. […]

[2] = system: UMNs of hSOD1^G93A-UeGFP mice; assay: Sholl analysis of arborization and branching, UMNs diseased by mSOD1 toxicity; assay type: cell-based, mouse; settings: 3 days in culture, data not shown
Method: UMN Cultures. P3 motor cortices isolated from WT-UeGFP, hSOD1^G93A-UeGFP, and prpTDP-43^A315T-UeGFP mice were dissected, dissociated, and cultured on glass coverslips (4×10^4 cells per 18 mm diameter coverslip, Fisherbrand) coated with poly-L-lysine (10 mg/mL, Sigma) as previously described (Ozdinler and Macklis 2006). Neurons were cultured in SFM [0.034 mg/L BSA, 1 mM L-glutamine, 25 U/mL penicillin, 0.025 mg/mL streptomycin, 35 mM glucose, and 0.5% B27 in Neurobasal-A medium (Life Technologies)] in a humidified tissue culture incubator in the presence of 5% CO2 at 37° C. […] Cultures were fixed after 3 days in vitro (DIV).
UMNs were quantitatively analyzed for differences in neurite length and arborization complexity. Images taken with a 20× objective on the epifluorescent microscope (Nikon) were analyzed using the Neurite Tracer plugin from FIJI (NIH), which enables semi-autonomous tracing to measure the length of the axon. The aggregation of the neurite tracings centered at the soma generates a profile available for Sholl analysis.

Q: How did the “average length of UMN axons” value ([1]; NU-9 400 nM, SFM control 227.62±19.63 μm, WT 321.41±17.54 μm) turn out when `Nc1nc2ccc(OC(F)(F)F)cc2s1` [riluzole, 2-Amino-6-(trifluoromethoxy)benzothiazole] was run?
A: The value was 274.83±9.83 μm.

Q: What about the “overall axon outgrowth (distribution of longest axons)” value [1] of the same compound?
A: The value was “improved overall axon outgrowth”.

Q: What about the “UMN arborization (Sholl measurements)” value [2] of the same compound?
A: Its value is “improved UMN arborization, but to a lesser extent”.

Reference: patent publication US20240398727A1, “(S)-5-(1-(3,5-BIS(TRIFLUOROMETHYL)PHENOXY)ETHYL)CYCLOHEXANE-1,3-DIONE (NU-9) IMPROVES THE HEALTH OF DISEASED UPPER MOTOR NEURONS” (Northwestern University, priority 2021, published 2024)
